This is an account of results in paper PMC7933275.

This assay has as its target T1, ubiquitin-specific protease 53 (USP53) with GFP, from the lentiviral vector pLenti-GIII-CMV-USP53-GFP-2A-Puro (UniProt Q70EK8).
T1 sequence: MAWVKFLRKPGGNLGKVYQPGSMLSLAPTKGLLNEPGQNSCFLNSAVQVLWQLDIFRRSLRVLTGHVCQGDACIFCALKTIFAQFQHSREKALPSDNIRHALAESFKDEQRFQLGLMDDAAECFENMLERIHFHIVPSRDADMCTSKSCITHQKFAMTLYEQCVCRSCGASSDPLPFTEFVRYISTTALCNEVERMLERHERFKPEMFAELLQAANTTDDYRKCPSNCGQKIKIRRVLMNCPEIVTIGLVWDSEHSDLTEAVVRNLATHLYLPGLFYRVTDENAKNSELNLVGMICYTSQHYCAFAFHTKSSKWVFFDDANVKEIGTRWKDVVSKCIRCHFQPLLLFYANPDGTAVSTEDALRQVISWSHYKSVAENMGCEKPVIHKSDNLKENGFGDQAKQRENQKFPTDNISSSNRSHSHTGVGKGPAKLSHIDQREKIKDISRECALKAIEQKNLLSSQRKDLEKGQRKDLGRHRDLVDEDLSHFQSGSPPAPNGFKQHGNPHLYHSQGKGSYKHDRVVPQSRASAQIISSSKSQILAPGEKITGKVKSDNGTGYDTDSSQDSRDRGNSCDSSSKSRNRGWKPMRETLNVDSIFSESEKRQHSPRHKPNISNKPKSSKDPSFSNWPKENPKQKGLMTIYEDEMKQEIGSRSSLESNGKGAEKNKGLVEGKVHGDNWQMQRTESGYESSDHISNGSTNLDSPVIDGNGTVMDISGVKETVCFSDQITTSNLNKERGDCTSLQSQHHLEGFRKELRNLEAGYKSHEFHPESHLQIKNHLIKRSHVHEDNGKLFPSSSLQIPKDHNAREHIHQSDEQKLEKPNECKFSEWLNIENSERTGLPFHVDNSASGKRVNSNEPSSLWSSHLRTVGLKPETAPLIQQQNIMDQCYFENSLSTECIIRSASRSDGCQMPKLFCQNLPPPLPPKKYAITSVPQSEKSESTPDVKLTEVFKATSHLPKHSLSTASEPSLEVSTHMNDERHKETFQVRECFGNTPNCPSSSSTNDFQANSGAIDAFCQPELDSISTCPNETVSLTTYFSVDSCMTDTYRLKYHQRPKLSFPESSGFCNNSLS
The experiment in a line: affinity purification with mass spectrometry; hBMSCs with lentiviral control vector or lentiviral vector-USP53, osteogenic induction medium for 4 days, MG132 (10 μM) for 6 h, passive lysis buffer; about 500 μg total protein incubated with antibody against GFP or IgG control at 4 °C overnight; differential bands of the InstantBlue-stained SDS-PAGE gel analysed by LC-MS/MS.

These are yes or no findings as the source states them, for the method shown. Binding seen in cells or lysates may run through a third protein. These calls come from enrichment with a bait or labelling near it, and not all partners need be listed. Sequences can lack the tags named with a protein.

B1: F-box only protein 31 (FBXO31), endogenous in hBMSCs (protein, UniProt Q5XUX0 1-539)
chain: MAVCARLCGVGPSRGCRRRQQRRGPAETAAADSEPDTDPEEERIEASAGVGGGLCAGPSPPPPRCSLLELPPELLVEIFASLPGTDLPSLAQVCTKFRRILHTDTIWRRRCREEYGVCENLRKLEITGVSCRDVYAKLLHRYRHILGLWQPDIGPYGGLLNVVVDGLFIIGWMYLPPHDPHVDDPMRFKPLFRIHLMERKAATVECMYGHKGPHHGHIQIVKKDEFSTKCNQTDHHRMSGGRQEEFRTWLREEWGRTLEDIFHEHMQELILMKFIYTSQYDNCLTYRRIYLPPSRPDDLIKPGLFKGTYGSHGLEIVMLSFHGRRARGTKITGDPNIPAGQQTVEIDLRHRIQLPDLENQRNFNELSRIVLEVRERVRQEQQEGGHEAGEGRGRQGPRESQPSPAQPRAEAPSKGPDGTPGEDGGEPGDAVAAAEQPAQCGQGQPFVLPVGVSSRNEDYPRTCRMCFYGTGLIAGHGFTSPERTPGVFILFDEDRFGFVWLELKSFSLYSRVQATFRNADAPSPQAFDEMLKNIQSLTS
For B1, the binding entry is “binds”.
